Read-outs that look alike come from different tables or passages of the source. Non-standard residues stand in square brackets, D forms with d. Residues, ends and D or L forms follow the SMILES beside them.
Columns and labels:
HEK293 = format: cell-based, human; details: selectivity index = EC50 divided by the MIC
Protocol: (§1) HeLa and HEK293 cell lines were purchased from ECACC and cultured in Eagle’s Minimum Essential Media containing glutamine, supplemented with 10% FBS and 1X non-essential amino acids. A549 and Calu-3 cell lines were purchased from ATCC. […] Cytotoxicity was measured by incubating starter cultures of cells for 24 h in a 96 well plate, gently removing the supernatant and replacing it with dilutions of peptides and controls, incubating for a further 24 h and then staining of the cells with the second-generation tetrazolium dye, XTT.

A549 = format: cell-based; details: selectivity index = EC50 divided by the MIC
Protocol: as §1

[1] = MIC in RPMI (value in parentheses)

Structure (SMILES) | SI HEK293 /EMRSA-15 (HEK293; MIC in Mueller Hinton broth) | SI HEK293 /EMRSA-15 (HEK293; [1]) | SI A549/EMRSA-15 (A549; MIC in Mueller Hinton broth) | SI A549/EMRSA-15 (A549; [1])
CC(C)C[C@@H](NC(=O)[C@@H](Cc1ccc(O)cc1)NC(=O)[C@@H](Cc1c[nH]cn1)NC(=O)[C@H](NC(=O)[C@@H](CC(C)C)NC(=O)[C@@H](C)NC(=O)[C@@H](C)NC(=O)[C@@H](CCCCN)NC(=O)CNC(=O)[C@H](NC(=O)[C@@H](Cc1c[nH]cn1)NC(=O)[C@@H](CCCCN)NC(=O)CNC(=O)[C@H](NC(=O)[C@@H](Cc1c[nH]cn1)NC(=O)[C@@H](C)NC(=O)[C@@H](C)NC(=O)[C@@H](CCCCN)NC(=O)[C@@H](CCCCN)NC(=O)[C@@H](Cc1ccccc1)NC(=O)[C@@H](Cc1ccccc1)NC(=O)[C@@H](CO)NC(=O)CNC(=O)[C@@H](Cc1c[nH]c2ccccc12)NC(=O)CN)C(C)C)C(C)C)[C@H](C)O)C(N)=O [D-pleurocidin] (H-G[dW]G[dS][dF][dF][dK][dK][dA][dA][dH][dV]G[dK][dH][dV]G[dK][dA][dA][dL][dT][dH][dY][dL]-NH2; N-terminus assumed) | 3.8 | 61.4 | 5.0 | 79.3
CC(C)C[C@@H](NC(=O)[C@@H](Cc1ccc(O)cc1)NC(=O)[C@@H](Cc1c[nH]cn1)NC(=O)[C@H](NC(=O)[C@@H](CC(C)C)NC(=O)[C@@H](C)NC(=O)[C@@H](C)NC(=O)[C@@H](CCCCN)NC(=O)CNC(=O)[C@@H](C)NC(=O)[C@@H](Cc1c[nH]cn1)NC(=O)[C@@H](CCCCN)NC(=O)CNC(=O)[C@@H](C)NC(=O)[C@@H](Cc1c[nH]cn1)NC(=O)[C@@H](C)NC(=O)[C@@H](C)NC(=O)[C@@H](CCCCN)NC(=O)[C@@H](CCCCN)NC(=O)[C@@H](Cc1ccccc1)NC(=O)[C@@H](Cc1ccccc1)NC(=O)[C@@H](CO)NC(=O)CNC(=O)[C@@H](Cc1c[nH]c2ccccc12)NC(=O)CN)[C@H](C)O)C(N)=O [D-pleurocidin-VA] (H-G[dW]G[dS][dF][dF][dK][dK][dA][dA][dH][dA]G[dK][dH][dA]G[dK][dA][dA][dL][dT][dH][dY][dL]-NH2; N-terminus assumed) | 6.8 | 27.2 | > 7.8 | > 31.2
CC(C)C[C@@H](NC(=O)[C@@H](Cc1ccc(O)cc1)NC(=O)[C@@H](Cc1c[nH]cn1)NC(=O)[C@H](NC(=O)[C@@H](CC(C)C)NC(=O)[C@@H](C)NC(=O)[C@@H](C)NC(=O)[C@@H](CCCNC(=N)N)NC(=O)CNC(=O)[C@H](NC(=O)[C@@H](Cc1c[nH]cn1)NC(=O)[C@@H](CCCNC(=N)N)NC(=O)CNC(=O)[C@H](NC(=O)[C@@H](Cc1c[nH]cn1)NC(=O)[C@@H](C)NC(=O)[C@@H](C)NC(=O)[C@@H](CCCNC(=N)N)NC(=O)[C@@H](CCCNC(=N)N)NC(=O)[C@@H](Cc1ccccc1)NC(=O)[C@@H](Cc1ccccc1)NC(=O)[C@@H](CO)NC(=O)CNC(=O)[C@@H](Cc1c[nH]c2ccccc12)NC(=O)CN)C(C)C)C(C)C)[C@H](C)O)C(N)=O [D-pleurocidin-KR] (H-G[dW]G[dS][dF][dF][dR][dR][dA][dA][dH][dV]G[dR][dH][dV]G[dR][dA][dA][dL][dT][dH][dY][dL]-NH2; N-terminus assumed) | 18.2 | 72.8 | 28.3 | 113.0
